This is an account of results in US20250313879A1, “Fluorescent Probe for Detecting Peptide Bond Hydrolase” (The University of Tokyo, priority 2022, published 2025).

Data set [1] in a line: Microdevice compatibility of fluorescent mother nucleus compounds (Table 5).
Data set [2] is described as follows: Degree of adsorption to well wall surface in microdevice. In kind it is physicochemical. The conditions noted are these: 10 μM, 25° C. 1 hour; for fluorescence intensity of the center region: radius 1.12 μm or less; for fluorescence intensity of the center region / fluorescence intensity of the edge portion: average value±standard deviation; for fluorescence intensity of the edge portion: radius more than 1.12 μm and 2.08 μm or less.

Structures are written as SMILES.

As to `C[Si]1(C)C2=CC(=N)C=CC2=C(c2ccc(S(=O)(=O)O)cc2S(=O)(=O)O)c2ccc(N)cc21` [2,4-SO3H], the “donut-shaped fluorescence image due to adsorption to the microdevice” value in data set [1] was “not observed”. Besides, in data set [2], the “ratio (edge/center) of fluorescence intensity” value amounted to 0.58, the “fluorescence intensity of the center region” value is listed as 1,880±178 AU and the “fluorescence intensity of the edge portion” value is listed as 1,087±106 AU.
Taken in the same sequence, the figures for `C=CCN(CC=C)c1ccc2c(c1)[Si](C)(C)C1=CC(=[N+](CC=C)CC=C)C=CC1=C2c1ccc(S(=O)(=O)O)cc1S(=O)(=O)O` [Tetra-allyl] were “not observed”, 0.62, 483±33 AU and 300±23 AU.
